# Among all 580,000 compounds or so, about 6,100 (1.1%) were called active. This list was built around the results that the source calls inconclusive (neither active nor inactive); the mix of calls is not that of the screen. Calls follow the shape of the dose curve; as a rule, active = well fitted inhibition curve with a large enough effect; inconclusive = small, poorly fitted or top-dose-only effect, or another doubt; inactive = no such curve, though single readings can be large or run the other way. Potencies beside an inconclusive call are fits to weak or partial responses and may not hold up.
# Sequences of proteins named here, by UniProt entry; tags and fusion partners are left off. A change or cut given only in a name is not applied to a line headed by its entry.
# UniProt P18054: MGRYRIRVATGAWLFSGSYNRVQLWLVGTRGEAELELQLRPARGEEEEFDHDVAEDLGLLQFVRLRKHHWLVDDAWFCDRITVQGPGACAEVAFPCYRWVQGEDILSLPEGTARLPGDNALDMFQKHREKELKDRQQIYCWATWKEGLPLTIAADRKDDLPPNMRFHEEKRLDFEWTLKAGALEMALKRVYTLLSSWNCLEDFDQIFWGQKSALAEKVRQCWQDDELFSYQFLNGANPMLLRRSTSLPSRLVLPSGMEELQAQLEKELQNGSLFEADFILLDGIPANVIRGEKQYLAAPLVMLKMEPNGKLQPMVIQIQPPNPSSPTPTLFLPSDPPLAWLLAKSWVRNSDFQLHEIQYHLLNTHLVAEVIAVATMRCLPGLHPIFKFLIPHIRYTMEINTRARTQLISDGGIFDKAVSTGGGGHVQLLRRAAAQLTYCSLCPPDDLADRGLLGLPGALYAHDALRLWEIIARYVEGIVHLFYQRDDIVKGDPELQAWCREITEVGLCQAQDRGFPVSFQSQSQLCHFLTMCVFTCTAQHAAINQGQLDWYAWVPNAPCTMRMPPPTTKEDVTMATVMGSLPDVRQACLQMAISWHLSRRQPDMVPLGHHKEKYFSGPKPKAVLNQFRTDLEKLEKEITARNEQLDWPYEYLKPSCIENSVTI
# Biological target: Polyunsaturated fatty acid lipoxygenase ALOX12 (Homo sapiens) (UniProt P18054)
# Assay: Primary qHTS assay for inhibitors of human arachidonate 12S-lipoxygenase (ALOX12): Round 2
# Conditions: purified 12hLO, xylenol orange hydroperoxide absorbance; activity change, negative = inhibition: at 108 µM (top of the series) unless noted
# Summary of the method: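 Purified human 12hLO at 150 nM in 25 mM Hepes, 0.01% Triton X-100, pH 7.0, preincubated 15 min at room temperature with compound. Reaction started with 40 uM arachidonic acid, 30 min at room temperature. Hydroperoxide measured by Fe-xylenol orange, 573/405 nm absorbance ratio.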
# % is scaled to controls: 0 for no effect and ±100 for the full control effect; potency is read from the fitted curve at half-maximal effect.
SMILES,Potency,"activity change, negative = inhibition"
O=c1[nH]c(-c2ccccc2)cn1C1CCN(Cc2ccc(-c3nc4ccc(Br)cc4nc3-c3ccccc3)cc2)CC1,"inconclusive: 12.6 µM [inhibitor, partial curve, poor fit]",
CCc1nn(CC(=O)Nc2ccc(N(CC)CC)cc2C)c(=O)c2cc3sccc3n12,"inconclusive: 56.2 µM [inhibitor, partial curve, poor fit]",
CC(C)Sc1ncc(Cl)c(C(=O)N(Cc2ccc(N(C)C)cc2)C2CCS(=O)(=O)C2)n1 (centres undefined),,inactive: -2.76%
N#Cc1ccc(C(=O)Nc2ccc3c(c2)N(C2CCCC2)C(=O)c2ccccc2S3)cc1,,inactive: -9.6%
Clc1ccc2[nH]c3c(c2c1)CCCC3,"inconclusive: 50.1 µM [inhibitor, partial curve, poor fit]",
Cc1ccc(SCC2(O)CCN(C(=O)c3ccc(Cl)cc3)CC2)cc1,"inconclusive: 100 µM [inhibitor, single point]",
Cc1ccc(Cn2c(CN3CCC(C(=O)NCCc4ccccc4)CC3)cc3ccccc32)cc1,,inactive: -13.9%
Cc1ccc(C(=O)Nc2ccccc2C(=O)N2CCOCC2)cc1[N+](=O)[O-],,inactive: 15.7%
Cc1nn(-c2ccc(N3CCCC3)nn2)c(C)c1CCC(=O)Nc1ccc(F)c(Cl)c1,,inactive: -21.9%
COc1cccc(Nc2ncc3nc(-c4ccc(Cl)cc4)c(=O)n(C[C@H]4CCCO4)c3n2)c1,"inconclusive: 50.1 µM [inhibitor, partial curve, poor fit]",
CN1C(=O)C(=O)/C(=C(/O)c2ccc(Br)cc2)C1c1ccc(F)cc1 (centres undefined),active: 25.1 µM,
CCc1ccc(CN2CCCC(CNC(=O)c3cccc(OC)c3OC)C2)cc1 (centres undefined),"inconclusive: 100 µM [inhibitor, single point]",
O=C(CN1CCN(S(=O)(=O)Cc2ccccc2)CC1)Nc1cccc(Cl)c1,"inconclusive: 89.1 µM [inhibitor, partial curve, poor fit]",
CC1=C(CC(=O)NCC(=O)NCC(=O)O)c2cc(F)ccc2/C1=C/c1ccc(S(C)=O)cc1 (centres undefined),"inconclusive: 35.5 µM [inhibitor, partial curve, poor fit]",
C/C(Cc1ccccc1)=N\NC(=O)c1ccc(C(C)(C)C)cc1,,inactive: 99.8%
O=C(NCCc1nc2ccccc2n1Cc1ccc(Cl)cc1Cl)c1ccco1,,inactive: -23.3%
CCN(CC)C(=O)c1cc2cc(Br)ccc2oc1=O,"inconclusive: 126 µM [inhibitor, partial curve, poor fit]",
COCCCNC(=S)N1CCN(c2nc3ccccc3s2)CC1,,inactive: 1.05%
CCC(=O)Nc1ccc2c(c1)C(=O)N(C1CCCCC1)C2=O,,inactive: -4.77%

# Reformatted: entries from further up.
SMILES	Potency	activity change, negative = inhibition
CC(C)Sc1ncc(Cl)c(C(=O)N(Cc2ccc(N(C)C)cc2)C2CCS(=O)(=O)C2)n1 (centres undefined)		inactive: -2.76%
N#Cc1ccc(C(=O)Nc2ccc3c(c2)N(C2CCCC2)C(=O)c2ccccc2S3)cc1		inactive: -9.6%
Cc1nn(-c2ccc(N3CCCC3)nn2)c(C)c1CCC(=O)Nc1ccc(F)c(Cl)c1		inactive: -21.9%
CN1C(=O)C(=O)/C(=C(/O)c2ccc(Br)cc2)C1c1ccc(F)cc1 (centres undefined)	active: 25.1 µM	
